PubChem BioAssay AID602196, INSERM – 2012
This is an unselected part of about 23,000 deposited reagents. Of all reagents, 455 (2%) were called active. 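Active includes both protection and sensitisation; some change values fall well beyond the stated -50 to +50 range.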 Not stated in the record: the amount of reagent.

Test: 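Genes whose knock-down alters cisplatin killing of lung cancer cells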
Cell system: human A549 lung cancer cells
Reagents: siRNA pair against human genes
Time to read-out: 48 h transfection before cisplatin; time from cisplatin to read-out not stated
Conditions: cisplatin at a dose killing half of control-siRNA cells; exact dose and duration not given
Measurement: 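Shift in cisplatin death relative to control siRNA, from -50 (all cells die) to +50 (no cells die); siRNAs harmful on their own scored 0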
Scale: two-siRNA summed score (-2 to +2): higher = both siRNAs protect from cisplatin killing; -2 means both sensitise; mean protection from cisplatin (shift in death) and protection from cisplatin (shift in death), siRNA C and protection from cisplatin (shift in death), siRNA D: higher = protection from cisplatin killing
Active means: 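Each siRNA scores 0 if harmful alone by LDH or WST-1, otherwise +1 if it reduces and -1 if it increases cisplatin killing; a gene is active when both siRNAs agree (sum +2 or -2)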
Meaning of the calls: active = both siRNAs shift cisplatin killing the same way; inactive = no consistent shift, or siRNA harmful alone

target | two-siRNA summed score (-2 to +2) | mean protection from cisplatin (shift in death) (%) | protection from cisplatin (shift in death), siRNA C (%) | protection from cisplatin (shift in death), siRNA D (%) | Call
UGT1A10 (GeneID 54575) | 0 | -0.4 | -8.1 | 7.4 | inactive
S100PBP (GeneID 64766) | 0 | 8.9 | 14.7 | 3.1 | inactive
LOC391373 | 1 | 9 | -0.2 | 18.3 | inactive
ADH5 (GeneID 128) | -1 | -7.1 | -11.9 | -2.2 | inactive
ADGRA2 (GeneID 25960) | 0 | 6.2 | 5.6 | 6.9 | inactive
SLC25A14 (GeneID 9016) | 0 | -1.4 | -2.3 | -0.6 | inactive
UNC45B (GeneID 146862) | 0 | 16.5 | 11.7 | 21.3 | inactive
SP100 (GeneID 6672) | 0 | 12.5 | 8.3 | 16.7 | inactive
TGFBI (GeneID 7045) | 0 | 14.5 | 5.8 | 23.3 | inactive
SLC46A1 (GeneID 113235) | 0 | 0.1 | -5.1 | 5.4 | inactive
GJD4 (GeneID 219770) | 0 | 0.4 | -8.6 | 9.4 | inactive
ONECUT2 (GeneID 9480) | 0 | 4.8 | -0.9 | 10.5 | inactive
LOC440815 | 1 | 12.4 | 18.6 | 6.1 | inactive
LOC102725228 (GeneID 102725228) | 1 | 17.7 | 11.8 | 23.6 | inactive
CRISPLD2 (GeneID 83716) | 0 | 15.9 | 24.3 | 7.4 | inactive
IGF2R (GeneID 3482) | -1 | -9.7 | -43.3 | 24 | inactive
GCM1 (GeneID 8521) | 1 | 4.8 | -6.8 | 16.5 | inactive
PICK1 (GeneID 9463) | 1 | 14 | 25.6 | 2.4 | inactive
ATP5PO (GeneID 539) | 0 | -4 | -10 | 2 | inactive
NQO1 (GeneID 1728) | -1 | -10.2 | -2.2 | -18.1 | inactive
TTTY5 (GeneID 83863) | 0 | -0.5 | 1.1 | -2 | inactive
RRP36 (GeneID 88745) | 0 | -1.8 | -7.6 | 3.9 | inactive
HAPSTR1 (GeneID 29035) | 0 | 7.6 | 8.5 | 6.7 | inactive
FES (GeneID 2242) | 1 | 9.9 | 1.6 | 18.3 | inactive
RNF7 (GeneID 9616) | 0 | -1.7 | 9.6 | -13.1 | inactive
EIF3L (GeneID 51386) | 0 | -4.7 | -3 | -6.4 | inactive
RDH14 (GeneID 57665) | 0 | -2.2 | -8.4 | 4 | inactive
DOCK6 (GeneID 57572) | 0 | -3.2 | -11.8 | 5.5 | inactive
MAD2L1BP (GeneID 9587) | 0 | 3.7 | 14.4 | -6.9 | inactive
CCDC122 (GeneID 160857) | 0 | -1 | -1.6 | -0.4 | inactive
SLC7A10 (GeneID 56301) | 0 | 0 | -4.3 | 4.4 | inactive
NDUFA9 (GeneID 4704) | 0 | 9.3 | 17 | 1.6 | inactive
LOC147151 | 0 | 2 | 8.1 | -4.1 | inactive
KU-MEL-3 (GeneID 497048) | 2 | 18.4 | 20.7 | 16.1 | active
UBQLN1 (GeneID 29979) | 0 | 7.4 | -1.1 | 15.9 | inactive
TFPT (GeneID 29844) | 0 | -1.4 | -3.4 | 0.7 | inactive
CHRAC1 (GeneID 54108) | -1 | -9.1 | 1.8 | -19.9 | inactive
CAB39 (GeneID 51719) | 0 | -0.5 | 0.3 | -1.3 | inactive
SLC10A3 (GeneID 8273) | 0 | -15 | -17 | -13.1 | inactive
AACS (GeneID 65985) | 0 | 5.4 | -7.4 | 18.3 | inactive
KRABD3 (GeneID 84626) | 0 | -10.6 | -16.8 | -4.4 | inactive
SAMD12 (GeneID 401474) | 0 | 2.7 | -5.5 | 10.8 | inactive
WDR1 (GeneID 9948) | 0 | -0.8 | 9 | -10.7 | inactive
TJP3 (GeneID 27134) | 0 | -10.3 | -13.1 | -7.5 | inactive
LOC441881 | 0 | 5.8 | 1.8 | 9.8 | inactive
ATF6 (GeneID 22926) | 0 | -0.7 | -0.6 | -0.8 | inactive
LOC400688 | 0 | 8.8 | 8.8 | 8.8 | inactive
ADGRF5 (GeneID 221395) | 0 | -0.4 | 0.7 | -1.4 | inactive
WDR26 (GeneID 80232) | 0 | 2.7 | 5.5 | -0.2 | inactive
PTPN9 (GeneID 5780) | 1 | 9.6 | 18.4 | 0.9 | inactive
PHF8 (GeneID 23133) | 0 | -0.8 | -7 | 5.4 | inactive
RAB40C (GeneID 57799) | -1 | -18.2 | -26.1 | -10.4 | inactive
OR1L8 (GeneID 138881) | 0 | 1.4 | -11 | 13.8 | inactive
RAB11FIP2 (GeneID 22841) | 2 | 12.9 | 10.4 | 15.4 | active
DKFZp762N1910 | 0 | -3.4 | -14.1 | 7.3 | inactive
LIN7A (GeneID 8825) | 0 | -1.3 | -9.1 | 6.6 | inactive
PKN1 (GeneID 5585) | 0 | -1.1 | -0.7 | -1.5 | inactive

5 neighbouring records from above:
target | two-siRNA summed score (-2 to +2) | mean protection from cisplatin (shift in death) (%) | protection from cisplatin (shift in death), siRNA C (%) | protection from cisplatin (shift in death), siRNA D (%) | Call
CRISPLD2 (GeneID 83716) | 0 | 15.9 | 24.3 | 7.4 | inactive
IGF2R (GeneID 3482) | -1 | -9.7 | -43.3 | 24 | inactive
GCM1 (GeneID 8521) | 1 | 4.8 | -6.8 | 16.5 | inactive
PICK1 (GeneID 9463) | 1 | 14 | 25.6 | 2.4 | inactive
ATP5PO (GeneID 539) | 0 | -4 | -10 | 2 | inactive
